The supplement of paper PMC12823440, “Inhibitors supercharge kinase turnover through native proteolytic circuits” (Nature, 2025)
Counter-ions that a name gives are not always drawn. The list shows a part of the results. Hit calls seldom repeat between salt and free forms of one compound.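 Kinases, fused to nanoluciferase, were expressed in K562 cells; luminescence was measured every 4 h from 2 to 18 h as percent of control (DMSO = 100%, positive control = 0%). A time point is decreased if signal falls significantly (2 sigma). Hits were called by the authors by a rule that is not shown; the count of time points alone does not decide it.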

Protein sequences, listed by entry. Tags and fused reporters are not part of them. Lines headed by an entry give the natural chain unless they say otherwise; changes in a name come on top.
UniProt P07949, whole entry, looked up: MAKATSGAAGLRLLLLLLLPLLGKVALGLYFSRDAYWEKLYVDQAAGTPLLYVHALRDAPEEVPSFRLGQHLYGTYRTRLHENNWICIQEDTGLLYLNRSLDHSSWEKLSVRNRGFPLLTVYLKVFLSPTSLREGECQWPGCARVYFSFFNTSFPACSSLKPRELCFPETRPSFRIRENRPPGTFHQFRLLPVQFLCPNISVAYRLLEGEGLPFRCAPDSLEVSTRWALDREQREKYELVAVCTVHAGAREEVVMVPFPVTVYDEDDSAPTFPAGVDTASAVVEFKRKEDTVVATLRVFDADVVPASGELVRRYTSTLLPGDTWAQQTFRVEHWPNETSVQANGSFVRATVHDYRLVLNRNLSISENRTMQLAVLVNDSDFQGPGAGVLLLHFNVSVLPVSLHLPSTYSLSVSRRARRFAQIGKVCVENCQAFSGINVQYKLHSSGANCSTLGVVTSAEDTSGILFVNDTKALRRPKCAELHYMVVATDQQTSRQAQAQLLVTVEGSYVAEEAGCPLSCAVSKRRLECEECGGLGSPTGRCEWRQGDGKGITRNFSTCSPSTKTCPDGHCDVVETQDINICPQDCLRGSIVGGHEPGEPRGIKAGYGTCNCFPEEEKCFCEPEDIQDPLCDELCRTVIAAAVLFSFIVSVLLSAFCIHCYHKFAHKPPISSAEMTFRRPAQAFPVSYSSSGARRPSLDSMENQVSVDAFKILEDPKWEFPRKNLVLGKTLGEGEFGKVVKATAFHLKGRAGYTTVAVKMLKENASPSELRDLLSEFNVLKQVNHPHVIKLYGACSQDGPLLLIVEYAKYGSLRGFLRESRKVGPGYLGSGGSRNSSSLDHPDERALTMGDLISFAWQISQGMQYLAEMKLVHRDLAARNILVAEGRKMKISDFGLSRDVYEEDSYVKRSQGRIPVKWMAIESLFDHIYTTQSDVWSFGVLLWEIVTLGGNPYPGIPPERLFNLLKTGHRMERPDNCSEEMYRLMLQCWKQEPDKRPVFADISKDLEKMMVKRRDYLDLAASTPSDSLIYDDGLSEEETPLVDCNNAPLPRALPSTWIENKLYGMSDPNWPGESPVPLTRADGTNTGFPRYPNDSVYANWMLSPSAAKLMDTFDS
UniProt P07949, whole entry M918T, looked up: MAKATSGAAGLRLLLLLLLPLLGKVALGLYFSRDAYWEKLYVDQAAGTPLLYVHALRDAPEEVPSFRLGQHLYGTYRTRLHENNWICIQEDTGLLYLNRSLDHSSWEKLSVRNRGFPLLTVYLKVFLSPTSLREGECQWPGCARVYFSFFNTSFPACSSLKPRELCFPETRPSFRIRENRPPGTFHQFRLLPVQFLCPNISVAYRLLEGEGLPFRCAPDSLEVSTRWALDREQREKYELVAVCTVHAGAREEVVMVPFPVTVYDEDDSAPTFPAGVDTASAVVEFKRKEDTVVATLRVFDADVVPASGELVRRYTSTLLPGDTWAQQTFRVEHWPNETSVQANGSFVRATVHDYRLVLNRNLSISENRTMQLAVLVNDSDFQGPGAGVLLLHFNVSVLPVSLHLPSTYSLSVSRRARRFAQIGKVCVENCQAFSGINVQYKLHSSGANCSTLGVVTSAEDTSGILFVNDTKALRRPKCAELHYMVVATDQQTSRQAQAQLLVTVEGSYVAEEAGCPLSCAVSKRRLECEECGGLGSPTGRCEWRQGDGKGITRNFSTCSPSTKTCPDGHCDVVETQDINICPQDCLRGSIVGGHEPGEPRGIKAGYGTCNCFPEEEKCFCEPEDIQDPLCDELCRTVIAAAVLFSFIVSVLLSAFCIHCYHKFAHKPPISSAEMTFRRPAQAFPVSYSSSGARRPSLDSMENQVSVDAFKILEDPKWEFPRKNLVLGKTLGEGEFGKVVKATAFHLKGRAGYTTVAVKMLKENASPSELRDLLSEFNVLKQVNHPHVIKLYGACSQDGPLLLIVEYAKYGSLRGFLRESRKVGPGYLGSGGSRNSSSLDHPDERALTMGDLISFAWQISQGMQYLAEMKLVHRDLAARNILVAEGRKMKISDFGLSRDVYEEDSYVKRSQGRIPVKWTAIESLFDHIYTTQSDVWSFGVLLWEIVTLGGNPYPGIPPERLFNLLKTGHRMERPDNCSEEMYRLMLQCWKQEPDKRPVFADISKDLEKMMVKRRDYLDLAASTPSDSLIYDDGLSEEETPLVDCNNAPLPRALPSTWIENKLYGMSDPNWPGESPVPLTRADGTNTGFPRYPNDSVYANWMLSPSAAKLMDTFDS
UniProt Q9BRS2: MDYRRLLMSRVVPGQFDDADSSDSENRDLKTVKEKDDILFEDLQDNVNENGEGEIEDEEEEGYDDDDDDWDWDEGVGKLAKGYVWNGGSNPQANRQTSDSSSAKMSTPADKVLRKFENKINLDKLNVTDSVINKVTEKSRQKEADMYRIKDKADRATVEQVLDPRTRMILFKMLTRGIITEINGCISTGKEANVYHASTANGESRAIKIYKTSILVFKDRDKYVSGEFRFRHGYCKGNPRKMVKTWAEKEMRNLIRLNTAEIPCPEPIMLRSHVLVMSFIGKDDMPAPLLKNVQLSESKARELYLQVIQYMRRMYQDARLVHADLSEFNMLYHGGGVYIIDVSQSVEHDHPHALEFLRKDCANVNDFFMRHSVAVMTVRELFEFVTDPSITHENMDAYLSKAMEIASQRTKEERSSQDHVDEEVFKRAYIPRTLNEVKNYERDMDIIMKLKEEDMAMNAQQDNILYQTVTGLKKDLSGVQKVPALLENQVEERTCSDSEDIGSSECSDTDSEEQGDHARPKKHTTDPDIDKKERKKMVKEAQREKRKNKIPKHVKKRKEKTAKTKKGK
UniProt Q13546: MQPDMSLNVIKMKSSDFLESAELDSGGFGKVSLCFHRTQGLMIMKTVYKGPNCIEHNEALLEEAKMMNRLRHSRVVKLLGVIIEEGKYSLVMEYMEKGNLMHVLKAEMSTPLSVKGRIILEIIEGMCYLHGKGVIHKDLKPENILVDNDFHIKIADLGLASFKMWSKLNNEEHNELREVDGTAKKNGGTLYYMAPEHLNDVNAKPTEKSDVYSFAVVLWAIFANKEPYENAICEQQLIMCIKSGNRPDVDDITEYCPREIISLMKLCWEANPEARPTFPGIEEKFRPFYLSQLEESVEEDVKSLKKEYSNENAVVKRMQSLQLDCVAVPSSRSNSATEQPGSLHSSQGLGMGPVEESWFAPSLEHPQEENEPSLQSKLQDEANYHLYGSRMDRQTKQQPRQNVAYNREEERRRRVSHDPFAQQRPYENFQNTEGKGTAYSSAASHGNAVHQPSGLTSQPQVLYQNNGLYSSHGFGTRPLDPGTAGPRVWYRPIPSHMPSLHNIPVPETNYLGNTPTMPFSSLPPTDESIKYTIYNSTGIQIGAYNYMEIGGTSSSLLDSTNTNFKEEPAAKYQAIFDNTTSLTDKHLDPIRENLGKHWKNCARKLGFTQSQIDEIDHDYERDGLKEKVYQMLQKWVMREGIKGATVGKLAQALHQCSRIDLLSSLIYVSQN
UniProt Q01974, whole entry: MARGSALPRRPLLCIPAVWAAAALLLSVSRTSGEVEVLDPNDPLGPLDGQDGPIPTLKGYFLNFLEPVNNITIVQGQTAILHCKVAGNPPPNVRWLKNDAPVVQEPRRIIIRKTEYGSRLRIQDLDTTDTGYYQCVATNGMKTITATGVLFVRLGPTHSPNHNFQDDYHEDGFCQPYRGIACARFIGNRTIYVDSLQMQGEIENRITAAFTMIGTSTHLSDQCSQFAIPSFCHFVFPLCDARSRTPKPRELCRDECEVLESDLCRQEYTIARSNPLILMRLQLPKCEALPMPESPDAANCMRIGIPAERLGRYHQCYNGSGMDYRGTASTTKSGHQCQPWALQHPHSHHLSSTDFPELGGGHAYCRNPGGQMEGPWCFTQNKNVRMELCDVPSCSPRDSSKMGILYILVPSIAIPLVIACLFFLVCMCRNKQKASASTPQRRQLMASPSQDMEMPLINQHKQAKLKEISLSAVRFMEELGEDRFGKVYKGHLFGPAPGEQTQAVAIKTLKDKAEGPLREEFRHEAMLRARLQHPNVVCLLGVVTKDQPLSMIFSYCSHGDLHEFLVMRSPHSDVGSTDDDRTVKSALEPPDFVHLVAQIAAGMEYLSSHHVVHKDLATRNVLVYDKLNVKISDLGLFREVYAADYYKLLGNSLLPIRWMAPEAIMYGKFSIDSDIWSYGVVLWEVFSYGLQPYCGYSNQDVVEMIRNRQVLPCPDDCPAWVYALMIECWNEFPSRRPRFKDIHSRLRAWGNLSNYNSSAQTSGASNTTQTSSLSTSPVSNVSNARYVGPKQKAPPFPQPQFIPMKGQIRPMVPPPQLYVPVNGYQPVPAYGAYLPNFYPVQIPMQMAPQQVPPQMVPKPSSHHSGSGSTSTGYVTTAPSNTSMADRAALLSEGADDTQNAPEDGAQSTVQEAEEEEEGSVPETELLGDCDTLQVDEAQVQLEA
UniProt Q15418, whole entry: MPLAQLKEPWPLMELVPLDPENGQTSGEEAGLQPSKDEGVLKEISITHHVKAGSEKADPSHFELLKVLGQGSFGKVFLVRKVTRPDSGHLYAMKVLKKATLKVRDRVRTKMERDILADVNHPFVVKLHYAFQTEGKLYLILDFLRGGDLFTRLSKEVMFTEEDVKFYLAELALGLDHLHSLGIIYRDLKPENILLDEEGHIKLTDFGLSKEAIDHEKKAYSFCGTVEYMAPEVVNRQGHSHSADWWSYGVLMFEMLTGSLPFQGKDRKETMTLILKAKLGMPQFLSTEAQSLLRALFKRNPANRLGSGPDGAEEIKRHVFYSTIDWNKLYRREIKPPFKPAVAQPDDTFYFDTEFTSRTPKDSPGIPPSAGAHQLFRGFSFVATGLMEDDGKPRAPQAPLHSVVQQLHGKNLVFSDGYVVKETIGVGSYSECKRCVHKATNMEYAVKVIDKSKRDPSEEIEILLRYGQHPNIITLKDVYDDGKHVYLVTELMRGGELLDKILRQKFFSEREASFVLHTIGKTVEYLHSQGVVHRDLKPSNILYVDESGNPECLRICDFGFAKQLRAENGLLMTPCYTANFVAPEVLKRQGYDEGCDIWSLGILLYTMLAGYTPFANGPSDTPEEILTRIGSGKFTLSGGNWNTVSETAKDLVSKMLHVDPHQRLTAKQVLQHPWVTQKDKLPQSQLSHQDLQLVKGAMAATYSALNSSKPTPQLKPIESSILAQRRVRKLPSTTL
UniProt Q9NYA1, whole entry: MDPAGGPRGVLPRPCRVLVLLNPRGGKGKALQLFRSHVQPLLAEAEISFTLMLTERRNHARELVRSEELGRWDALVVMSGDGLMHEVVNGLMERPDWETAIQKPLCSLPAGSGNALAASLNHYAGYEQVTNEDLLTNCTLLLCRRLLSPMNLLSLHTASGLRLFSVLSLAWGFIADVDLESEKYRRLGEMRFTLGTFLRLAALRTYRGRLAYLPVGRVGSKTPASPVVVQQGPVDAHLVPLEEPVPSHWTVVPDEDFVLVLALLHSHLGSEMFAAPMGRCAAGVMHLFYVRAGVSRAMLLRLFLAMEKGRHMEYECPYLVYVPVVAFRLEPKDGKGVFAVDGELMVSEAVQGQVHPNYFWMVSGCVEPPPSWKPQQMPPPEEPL
UniProt Q9Y6E0: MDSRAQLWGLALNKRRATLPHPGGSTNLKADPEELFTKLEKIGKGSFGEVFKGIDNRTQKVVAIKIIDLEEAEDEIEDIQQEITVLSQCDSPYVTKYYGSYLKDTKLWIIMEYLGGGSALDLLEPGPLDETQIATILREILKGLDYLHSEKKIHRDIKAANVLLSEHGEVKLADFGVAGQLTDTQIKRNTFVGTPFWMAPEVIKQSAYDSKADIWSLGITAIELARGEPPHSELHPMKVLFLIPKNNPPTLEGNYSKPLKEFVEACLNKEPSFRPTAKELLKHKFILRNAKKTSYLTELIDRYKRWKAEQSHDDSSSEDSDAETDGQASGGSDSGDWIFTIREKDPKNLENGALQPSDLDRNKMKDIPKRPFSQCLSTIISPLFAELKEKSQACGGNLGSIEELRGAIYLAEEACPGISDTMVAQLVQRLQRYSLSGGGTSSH

Legend:
Experiment in all cases: kinase-Nluc reporter destabilization hit call (1 = scored as downregulated) (binary); higher = compound decreases kinase abundance
Conditions in all cases: K562; 2-18 h
[1] = molecular target: RET (UniProt P07949)
[2] = molecular target: RET_M918T (clone: RET_mut) (UniProt P07949)
[3] = molecular target: RIOK1 (UniProt Q9BRS2)
[4] = molecular target: RIPK1 (UniProt Q13546)
[5] = molecular target: RIPK2 (UniProt O43353)
[6] = molecular target: ROR2 (UniProt Q01974)
[7] = molecular target: RPS6KA1 (UniProt Q15418)
[8] = molecular target: SPHK1 (UniProt Q9NYA1)
[9] = molecular target: SRC (UniProt P12931)
[10] = molecular target: STK24 (UniProt Q9Y6E0)

Measured: kinase-Nluc reporter destabilization hit call

COc1cc(N2CCOCC2)ccc1Nc1ncc(F)c(Nc2ccccc2NS(C)(=O)=O)n1 (10 µM)
inactive: [1] 0 | [2] 0 | [3] 0 | [4] 0 | [5] 0 | [6] 0 | [7] 0 | [8] 0 | [9] 0 | [10] 0

CN1CCC(CNc2ccc3ncc(-c4cccc(OC(F)(F)F)c4)n3n2)CC1 (2.5 µM)
inactive: [1] 0 | [2] 0 | [3] 0 | [4] 0 | [5] 0 | [6] 0 | [7] 0 | [8] 0 | [9] 0 | [10] 0

O=C1CC[C@H](NC(=O)Cc2ccccc2)C(=O)N1 [Antineoplaston A10] (10 µM)
inactive: [1] 0 | [2] 0 | [3] 0 | [4] 0 | [5] 0 | [6] 0 | [7] 0 | [8] 0 | [9] 0 | [10] 0

COC(=O)[C@H](CCSC)NC(=O)c1ccc(NC[C@@H](N)CS)cc1-c1ccccc1 [FTI-277 (hydrochloride)] (10 µM)
inactive: [1] 0 | [2] 0 | [3] 0 | [4] 0 | [5] 0 | [6] 0 | [7] 0 | [8] 0 | [9] 0 | [10] 0

NS(=O)(=O)c1ccc(Nc2nc(-c3cccc(-c4ccccc4)c3)c3[nH]cnc3n2)cc1 (10 µM)
inactive: [1] 0 | [2] 0 | [3] 0 | [4] 0 | [5] 0 | [6] 0 | [7] 0 | [8] 0 | [9] 0 | [10] 0

Cn1c(CNc2cccc(C(=O)NCc3ccccc3C(F)(F)F)c2)nnc1-c1ccncc1 (10 µM)
inactive: [1] 0 | [2] 0 | [3] 0 | [4] 0 | [5] 0 | [6] 0 | [7] 0 | [8] 0 | [9] 0 | [10] 0

COc1cc2ncnc(Oc3ccc(CC(=O)Nc4cnn(C(C)C)c4)cc3)c2cc1OC (10 µM)
inactive: [1] 0 | [2] 0 | [3] 0 | [4] 0 | [5] 0 | [6] 0 | [7] 0 | [8] 0 | [9] 0 | [10] 0

CCN(CC)CCOc1ccc(Nc2nc(-c3ccccc3NC(=O)CCN3CCN(C)CC3)nc3ccccc23)cc1 (2.5 µM)
inactive: [1] 0 | [2] 0 | [3] 0 | [4] 0 | [5] 0 | [6] 0 | [7] 0 | [8] 0 | [9] 0 | [10] 0

COc1ccc(-c2cc(=O)c3c(OC)cc(OC)c(OC)c3o2)cc1 [6-Demethoxytangeretin] (10 µM)
inactive: [1] 0 | [2] 0 | [3] 0 | [4] 0 | [5] 0 | [6] 0 | [7] 0 | [8] 0 | [9] 0 | [10] 0

Fc1ccc2[nH]ccc2c1-c1nc(N2CCOCC2)c2sc(CN3CCN(CC4CC4)CC3)cc2n1 (10 µM)
inactive: [1] 0 | [2] 0 | [3] 0 | [4] 0 | [5] 0 | [6] 0 | [7] 0 | [8] 0 | [9] 0 | [10] 0

NCCOc1ccc(Cl)cc1C(=O)Nc1ccc([N+](=O)[O-])cc1Cl [HJC0152 hydrochloride] (2 µM)
inactive: [1] 0 | [2] 0 | [3] 0 | [4] 0 | [5] 0 | [6] 0 | [7] 0 | [8] 0 | [9] 0 | [10] 0

COC(=O)/C=C/c1ccccc1 [Methyl cinnamate] (10 µM)
inactive: [1] 0 | [2] 0 | [3] 0 | [4] 0 | [5] 0 | [6] 0 | [7] 0 | [8] 0 | [9] 0 | [10] 0

CC(C)=CCC/C(C)=C/CC/C(C)=C/C=C/C(C)=C/C(=O)O [Peretinoin] (10 µM)
inactive: [1] 0 | [2] 0 | [3] 0 | [4] 0 | [5] 0 | [6] 0 | [7] 0 | [8] 0 | [9] 0 | [10] 0

CCCCCc1ccc(/C=C/[C@H](O)[C@@H](CO)NC)cc1 [SK1-I (hydrochloride)] (10 µM)
inactive: [1] 0 | [2] 0 | [3] 0 | [4] 0 | [5] 0 | [6] 0 | [7] 0 | [8] 0 | [9] 0 | [10] 0

Cc1cc(O)c2c(c1)C(=O)c1cccc(O)c1C2=O [Chrysophanol] (2 µM)
inactive: [1] 0 | [2] 0 | [3] 0 | [4] 0 | [5] 0 | [6] 0 | [7] 0 | [8] 0 | [9] 0 | [10] 0

CCCn1/c(=N/C(=O)c2cccc(C(N)=O)c2)[nH]c2ccccc21 [Takinib] (10 µM)
inactive: [1] 0 | [2] 0 | [3] 0 | [4] 0 | [5] 0 | [6] 0 | [7] 0 | [8] 0 | [9] 0 | [10] 0

COC(=O)Nc1ccc(-c2nc(N3CCOCC3)c3cnn(C4CCN(C(=O)OC)CC4)c3n2)cc1 (10 µM)
inactive: [1] 0 | [2] 0 | [3] 0 | [4] 0 | [5] 0 | [6] 0 | [7] 0 | [8] 0 | [9] 0 | [10] 0

COc1cc2nccc(Oc3ccc(NC(=O)c4cn(C(C)C)c(=O)n(-c5ccc(F)cc5)c4=O)cc3F)c2cc1OC (0.5 µM)
inactive: [1] 0 | [2] 0 | [3] 0 | [4] 0 | [5] 0 | [6] 0 | [7] 0 | [8] 0 | [9] 0 | [10] 0

Not a retest: 2 of the compounds above.
CCN(CC)CCOc1ccc(Nc2nc(-c3ccccc3NC(=O)CCN3CCN(C)CC3)nc3ccccc23)cc1 (2.5 µM)
inactive: [1] 0 | [2] 0 | [3] 0 | [4] 0 | [5] 0 | [6] 0 | [7] 0 | [8] 0 | [9] 0 | [10] 0

COc1ccc(-c2cc(=O)c3c(OC)cc(OC)c(OC)c3o2)cc1 [6-Demethoxytangeretin] (10 µM)
inactive: [1] 0 | [2] 0 | [3] 0 | [4] 0 | [5] 0 | [6] 0 | [7] 0 | [8] 0 | [9] 0 | [10] 0

The results go on:

CC(C)(C)Cc1[nH]nc2c1[C@@](C)(c1ccccc1)C1=C(CC(C)(C)CC1=O)N2 (10 µM)
inactive: [1] 0 | [2] 0 | [3] 0 | [4] 0 | [5] 0 | [6] 0 | [7] 0 | [8] 0 | [9] 0 | [10] 0

Nc1ncc(C(=O)NC2CN(C(=O)C3CC3)C2)c2ccc(-c3cccc(F)c3)nc12 (2 µM)
inactive: [1] 0 | [2] 0 | [3] 0 | [4] 0 | [5] 0 | [6] 0 | [7] 0 | [8] 0 | [9] 0 | [10] 0

Cc1cc(Nc2cc(N)ncn2)c(=O)n2c1C(=O)NC21CCCCC1 [Tomivosertib] (10 µM)
inactive: [1] 0 | [2] 0 | [3] 0 | [4] 0 | [5] 0 | [6] 0 | [7] 0 | [8] 0 | [9] 0 | [10] 0

O=Nc1c(-c2c(O)[nH]c3cc(Br)ccc23)[nH]c2ccccc12 [GSK 3 Inhibitor IX] (2.5 µM)
inactive: [1] 0 | [2] 0 | [3] 0 | [4] 0 | [5] 0 | [6] 0 | [7] 0 | [8] 0 | [9] 0 | [10] 0

COc1cc(-c2cc(OP(=O)(O)O)cc(-c3cc(OC)c(OC)c(OC)c3)c2)cc(OC)c1OC [Stafia-1] (10 µM)
inactive: [1] 0 | [2] 0 | [3] 0 | [4] 0 | [5] 0 | [6] 0 | [7] 0 | [8] 0 | [9] 0 | [10] 0

CCn1c(-c2nonc2N)nc2c(C#CC(C)(C)O)ncc(OC[C@H]3CCCNC3)c21 (10 µM)
inactive: [1] 0 | [2] 0 | [3] 0 | [4] 0 | [5] 0 | [6] 0 | [7] 0 | [8] 0 | [9] 0 | [10] 0

CC(C)CCN1c2nc(Nc3cc(F)c(O)c(F)c3)ncc2N(C)C(=O)C1C (stereo not given) (2.5 µM)
inactive: [1] 0 | [2] 0 | [3] 0 | [4] 0 | [5] 0 | [6] 0 | [7] 0 | [8] 0 | [9] 0 | [10] 0

COc1ccc(Nc2ncc(C(F)(F)F)c(NC3CC3)n2)cc1OC (10 µM)
inactive: [1] 0 | [2] 0 | [3] 0 | [4] 0 | [5] 0 | [6] 0 | [7] 0 | [8] 0 | [9] 0 | [10] 0

Cc1cc(C(=O)Nc2nc3cccc(Cl)c3n2[C@@H]2CCCCN(C(=O)/C=C/CN(C)C)C2)ccn1 [Nazartinib] (10 µM)
inactive: [1] 0 | [2] 0 | [3] 0 | [4] 0 | [5] 0 | [6] 0 | [7] 0 | [8] 0 | [9] 0 | [10] 0

Cn1ncc(NC(=O)c2nc(-c3c(F)cccc3F)sc2N)c1N1CC[C@@H](N)[C@H](F)CC1 (10 µM)
inactive: [1] 0 | [2] 0 | [3] 0 | [4] 0 | [5] 0 | [6] 0 | [7] 0 | [8] 0 | [9] 0 | [10] 0

Cc1ccc(C(=O)NC2CC2)cc1-n1ncc(C(=O)c2cccc(C#N)c2)c1N [Acumapimod] (10 µM)
inactive: [1] 0 | [2] 0 | [3] 0 | [4] 0 | [5] 0 | [6] 0 | [7] 0 | [8] 0 | [9] 0 | [10] 0

CN1CCN(c2cc(-c3ccncc3)c(-c3ccc4ccccc4c3)nn2)CC1 (10 µM)
inactive: [1] 0 | [2] 0 | [3] 0 | [4] 0 | [5] 0 | [6] 0 | [7] 0 | [8] 0 | [9] 0 | [10] 0

COc1cc2ncnc(Nc3ccc(O)c(Br)c3)c2cc1OC (10 µM)
inactive: [1] 0 | [2] 0 | [3] 0 | [4] 0 | [5] 0 | [6] 0 | [7] 0 | [8] 0 | [9] 0 | [10] 0

Cc1cccc(/C=N/Nc2cc(N3CCOCC3)n3nc(-c4ccncc4)cc3n2)c1 (10 µM)
inactive: [1] 0 | [2] 0 | [3] 0 | [4] 0 | [5] 0 | [6] 0 | [7] 0 | [8] 0 | [9] 0 | [10] 0

Nc1[nH]nc2nc(-c3ccc(NS(=O)(=O)c4cc(Cl)ccc4Cl)cc3)cnc12 (10 µM)
inactive: [1] 0 | [2] 0 | [3] 0 | [4] 0 | [5] 0 | [6] 0 | [7] 0 | [8] 0 | [9] 0 | [10] 0
